Values from PubChem BioAssay AID1159578 (Peter MacCallum Cancer Centre, 2015)
Aim: 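Knock-downs that alter how fast lymphatic endothelial cells migrate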 (primary screen). System: human lymphatic endothelial cells. Knock-down reagent: siRNA pool against human genes, 40 nM. Duration: 48 h after transfection. Measured: 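Cells stained with dye and imaged after a scratch; covered wound area and nuclei counted, duplicates averaged, migration set against mock wells and turned into a robust z-score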. Reading the numbers: migration robust z-score: higher = faster migration into the scratch; migration relative to mock: higher = more scratch area covered than mock; nuclei per well: higher = more cells in the well. Hit rule: 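Pools averaging fewer than 3300 nuclei are never called; remaining pools count as changed when migration robust z lies outside -2 to 2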. Meaning of the calls: active = migration changed; inactive = no migration change, or too few cells.
The deposit covers about 18,000 reagents; shown is a random part of them. About 1,030 of them (5.7%) count as active. 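Inactive calls also include pools with fewer than 3300 nuclei, whose migration was not assessed.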 Raw values vary from plate to plate and are shown uncorrected.

gene knocked down | migration robust z-score | migration class with cell-count check | migration relative to mock | nuclei per well, duplicate mean | outcome
UBE2K (ubiquitin conjugating enzyme E2 K) | -1.04 | migration z between -2 and 2; enough cells | 0.6 | 5220 | inactive
ZNF571 (zinc finger protein 571) | -0.97 | migration z between -2 and 2; enough cells | 0.64 | 6626 | inactive
TNRC6C (trinucleotide repeat containing adaptor 6C) | -0.92 | migration z between -2 and 2; enough cells | 0.64 | 4991 | inactive
TIPARP (TCDD inducible poly(ADP-ribose) polymerase) | -0.86 | migration z between -2 and 2; enough cells | 0.64 | 4918 | inactive
POC5 (POC5 centriolar protein) | 1.84 | migration z between -2 and 2; enough cells | 1.38 | 4660 | inactive
CCN1 (cellular communication network factor 1) | -1.2 | migration z between -2 and 2; enough cells | 0.57 | 5764 | inactive
EGLN2 (egl-9 family hypoxia inducible factor 2) | 0.54 | migration z between -2 and 2; enough cells | 0.91 | 4420 | inactive
RRP12 (ribosomal RNA processing 12 homolog) | 1.27 | migration z between -2 and 2; enough cells | 1.21 | 6530 | inactive
ZYG11B (zyg-11 family member B, cell cycle regulator) | 0.25 | migration z between -2 and 2; enough cells | 0.95 | 7794 | inactive
CMTM7 (CKLF like MARVEL transmembrane domain containing 7) | -1.58 | migration z between -2 and 2; enough cells | 0.47 | 4748 | inactive
ABLIM3 (actin binding LIM protein family member 3) | -1.39 | migration z between -2 and 2; enough cells | 0.52 | 5290 | inactive
USP54 (ubiquitin specific peptidase 54) | -0.98 | migration z between -2 and 2; enough cells | 0.63 | 6428 | inactive
IRF2BP2 (interferon regulatory factor 2 binding protein 2) | -0.44 | migration z between -2 and 2; enough cells | 0.77 | 4187 | inactive
LHX9 (LIM homeobox 9) | -0.4 | migration z between -2 and 2; enough cells | 0.78 | 4466 | inactive
MOB1B (MOB kinase activator 1B) | 1.12 | migration z between -2 and 2; enough cells | 1.17 | 6698 | inactive
SNX2 (sorting nexin 2) | -1.02 | migration z between -2 and 2; enough cells | 0.62 | 6982 | inactive
PPA1 (inorganic pyrophosphatase 1) | -0.96 | migration z between -2 and 2; enough cells | 0.62 | 4598 | inactive
SRSF2 (serine and arginine rich splicing factor 2) | 0.49 | migration z between -2 and 2; enough cells | 0.9 | 5530 | inactive
TAS2R1 (taste 2 receptor member 1) | 1.38 | migration z between -2 and 2; enough cells | 1.24 | 5858 | inactive
G6PC1 (glucose-6-phosphatase catalytic subunit 1) | -0.16 | migration z between -2 and 2; enough cells | 0.78 | 5186 | inactive
SP8 (Sp8 transcription factor) | 0.54 | migration z between -2 and 2; enough cells | 1.02 | 7306 | inactive
AS3MT (arsenite methyltransferase) | -1.94 | under 3300 nuclei; migration not judged | 0.43 | 3144 | inactive
ASTL (astacin like metalloendopeptidase) | -2.05 | migration z below -2; enough cells | 0.41 | 6030 | active
NLRP2 (NLR family pyrin domain containing 2) | 1.95 | migration z between -2 and 2; enough cells | 1.18 | 5119 | inactive
LMLN (leishmanolysin like peptidase) | 0.44 | migration z between -2 and 2; enough cells | 0.89 | 5540 | inactive
GTPBP10 (GTP binding protein 10) | 0.36 | migration z between -2 and 2; enough cells | 0.98 | 5166 | inactive
RLIM (ring finger protein, LIM domain interacting) | 0.52 | migration z between -2 and 2; enough cells | 0.9 | 3858 | inactive
ZNF318 (zinc finger protein 318) | 0.01 | migration z between -2 and 2; enough cells | 0.89 | 6646 | inactive
ZNF648 (zinc finger protein 648) | 1.19 | migration z between -2 and 2; enough cells | 1.19 | 5562 | inactive
H1-4 (H1.4 linker histone, cluster member) | 1.48 | migration z between -2 and 2; enough cells | 1.27 | 6648 | inactive
KIT (KIT proto-oncogene, receptor tyrosine kinase) | 0.83 | migration z between -2 and 2; enough cells | 0.97 | 6857 | inactive
RETREG2 (reticulophagy regulator family member 2) | -0.48 | migration z between -2 and 2; enough cells | 0.76 | 5400 | inactive
C5AR2 (complement C5a receptor 2) | -1.06 | migration z between -2 and 2; enough cells | 0.6 | 4481 | inactive
DAAM1 (dishevelled associated activator of morphogenesis 1) | -0.82 | migration z between -2 and 2; enough cells | 0.66 | 6719 | inactive

In a second layout: 8 of the entries above
gene knocked down	migration robust z-score	migration class with cell-count check	migration relative to mock	nuclei per well, duplicate mean	outcome
TIPARP (TCDD inducible poly(ADP-ribose) polymerase)	-0.86	migration z between -2 and 2; enough cells	0.64	4918	inactive
POC5 (POC5 centriolar protein)	1.84	migration z between -2 and 2; enough cells	1.38	4660	inactive
CCN1 (cellular communication network factor 1)	-1.2	migration z between -2 and 2; enough cells	0.57	5764	inactive
EGLN2 (egl-9 family hypoxia inducible factor 2)	0.54	migration z between -2 and 2; enough cells	0.91	4420	inactive
RRP12 (ribosomal RNA processing 12 homolog)	1.27	migration z between -2 and 2; enough cells	1.21	6530	inactive
ZYG11B (zyg-11 family member B, cell cycle regulator)	0.25	migration z between -2 and 2; enough cells	0.95	7794	inactive
CMTM7 (CKLF like MARVEL transmembrane domain containing 7)	-1.58	migration z between -2 and 2; enough cells	0.47	4748	inactive
ABLIM3 (actin binding LIM protein family member 3)	-1.39	migration z between -2 and 2; enough cells	0.52	5290	inactive

The list goes on.
gene knocked down | migration robust z-score | migration class with cell-count check | migration relative to mock | nuclei per well, duplicate mean | outcome
PNPLA8 (patatin like domain 8, phospholipase A2) | 0.06 | migration z between -2 and 2; enough cells | 0.9 | 7200 | inactive
XK | 0.75 | migration z between -2 and 2; enough cells | 0.95 | 5585 | inactive
RBM28 (RNA binding motif protein 28) | -0.56 | migration z between -2 and 2; enough cells | 0.74 | 5416 | inactive
SCAPER (S-phase cyclin A associated protein in the ER) | -0.03 | migration z between -2 and 2; enough cells | 0.88 | 5782 | inactive
YIF1B | 1.68 | migration z between -2 and 2; enough cells | 1.31 | 6022 | inactive
ITGA2 (integrin subunit alpha 2) | -0.94 | migration z between -2 and 2; enough cells | 0.62 | 4772 | inactive
ARHGAP28 (Rho GTPase activating protein 28) | -1.37 | migration z between -2 and 2; enough cells | 0.53 | 6337 | inactive
SSR4 (signal sequence receptor subunit 4) | -0.24 | migration z between -2 and 2; enough cells | 0.82 | 4920 | inactive
GYG1 (glycogenin 1) | 3.84 | migration z above 2; enough cells | 1.54 | 6521 | active
THNSL2 (threonine synthase like 2) | 1.19 | migration z between -2 and 2; enough cells | 1.04 | 5322 | inactive
STAC3 (SH3 and cysteine rich domain 3) | 1.85 | migration z between -2 and 2; enough cells | 1.36 | 6236 | inactive
CNIH3 (cornichon family AMPA receptor auxiliary protein 3) | -0.02 | migration z between -2 and 2; enough cells | 0.88 | 4868 | inactive
FAABTP (fatty acid amide binding transmembrane protein) | 0 | migration z between -2 and 2; enough cells | 0.88 | 5610 | inactive
CYP39A1 (cytochrome P450 family 39 subfamily A member 1) | -1.04 | migration z between -2 and 2; enough cells | 0.6 | 5146 | inactive
PKLR (pyruvate kinase L/R) | 1.06 | migration z between -2 and 2; enough cells | 1.01 | 4992 | inactive
PRPF38B (pre-mRNA processing factor 38B) | -0.37 | migration z between -2 and 2; enough cells | 0.79 | 5662 | inactive
EXO5 (exonuclease 5) | 1.09 | migration z between -2 and 2; enough cells | 1.17 | 5616 | inactive
CPN2 (carboxypeptidase N subunit 2) | -4.22 | migration z below -2; enough cells | -0.01 | 5104 | active
MASP2 (MBL associated serine protease 2) | 0.08 | migration z between -2 and 2; enough cells | 0.82 | 5444 | inactive
OR2G6 (olfactory receptor family 2 subfamily G member 6) | -0.54 | migration z between -2 and 2; enough cells | 0.74 | 5344 | inactive
CST7 (cystatin F) | -0.2 | migration z between -2 and 2; enough cells | 0.76 | 4562 | inactive
INS-IGF2 (INS-IGF2 readthrough) | 1.39 | migration z between -2 and 2; enough cells | 1.25 | 5896 | inactive
TPRG1 (tumor protein p63 regulated 1) | -0.57 | migration z between -2 and 2; enough cells | 0.74 | 5972 | inactive
